# Results of single-concentration screens

Data taken from ChEMBL document CHEMBL3988442, “University of Dundee, Small-Polar-MMV Screening Library” (2021).

A: 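Growth of Mycobacterium tuberculosis over 3 days (7H9 medium with glucose and tyloxapol); the read-out is not stated. Concentration: 50 µM. Higher reads as more growth inhibition (inferred: compounds with an IC50 in retests scored well above the rest). Of about 69,000 compounds tested this way, about 760 (1.1%) reached 50% or more in at least one test.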
B: 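Growth of Mycobacterium tuberculosis over 4 days (cholesterol / DPPC medium with tyloxapol); the read-out is not stated. Concentration: 50 µM. Higher reads as more growth inhibition (inferred: compounds with an IC50 in retests scored well above the rest). About 69,000 compounds were tested under these conditions; 0.54% (about 370) showed 50% or more at least once.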

The filed quantity is “Percent Effect” (%). How 0% and 100% were set is not recorded. Most values in the screen are low, and negative values occur. Compounds were drawn at random from those tested, without regard to their results. Two or more numbers in one place are separate tests of the same structure; such repeats can differ widely.

| SMILES | A | B |
|---|---|---|
| `CN(C)C(=O)C1SCCc2ccccc21` (stereo unspecified) | -0.7387 and 12.59 | -1.576 |
| `CCC(=O)Nc1ccccc1Sc1nc(Br)nn1C` | 12.78 | 3.642 |
| `O=C1Nc2ccccc2NC12CCN(c1cccc(C(F)(F)F)n1)CC2` | -63.27 | 114.6 |
| `CC(C)(O)CSCCNCc1ccc(Cl)c2cccnc12` | -60.06 | -34.67 |
| `Cc1ncc(CN2CCN(c3ccc4nncn4n3)C(C)C2)s1` (stereo unspecified) | -0.9345 | -0.9199 |
| `O=C(NC1CCN(c2ccccc2OC(F)F)C1)c1cccnc1` (stereo unspecified) | 28.07 and 28.12 | 17.61 |
| `CNC(=O)CN1CCN(C(=O)c2ccn(C)c(=O)c2)CC1` | -14.86 | -19.66 |
| `Cc1nnc(NCc2ccccc2S(=O)(=O)N(C)C)c(C#N)c1C` | -24.33 | -9.249 |
| `[H][C@@]12COC[C@]1(COCC(=O)N(C)C)CN(Cc1ccoc1)C2` | 13.02 | 2.727 |
| `COC(=O)CN(C(=O)c1cc(C)c(F)cc1F)c1cccc(C)n1` | -4.811 | 10.14 |
| `[H][C@@]12OCCC[C@]1([H])N(C(C)=O)C[C@@H]2NC(=O)c1cscn1` | -13.05 | -8.362 |
| `[H][C@@]12CN(C3CCN(CC)CC3)C[C@]1([H])N(CCc1cccc(Cl)c1)C(=O)O2` | -22.35 | -17.19 and 2.586 |
| `CC(NCCn1c(=O)oc2ccccc21)c1ccccn1` (stereo unspecified) | -2.599 | -25.19 |
| `COCCN1CCN(c2ccc(C)nn2)Cc2ccc(C)nc21.O=C(O)C(F)(F)F.O=C(O)C(F)(F)F` | 24.64 | -15.77 |
| `Cc1ccc(-c2cnnc(N3CCCC3c3nccs3)n2)o1` (stereo unspecified) | 15.43 | 33.36 |
| `[H][C@]12CC[C@@]3(N=C(c4ccccc4)NC3=O)[C@@]1([H])CN(C(=O)N1CCCC1)C2` | -3.504 and 8.221 | 0.3509 |
| `CN(Cc1ccc(C#N)cc1)CC1CCS(=O)(=O)C1` (stereo unspecified) | -17.85 | 10.1 |
| `CN(C)c1ccc(CNC(=O)Nc2ccc(S(C)(=O)=O)nc2)cc1` | 0.6402 | -4.607 |
| `[H][C@@]12CN(C(C)=O)C[C@]1([H])C(=O)N(CC1CC1)C2` | -21.1 | 0.2698 |
| `CC1CN(Cc2ccccc2Cn2cccn2)CCN1C` (stereo unspecified) | -2.908 and -2.28 | -4.95 and 0.6306 |
| `CCc1nc(CN2CCCN(C(=O)C(C)n3cncn3)CC2)cs1` (stereo unspecified) | 3.718 | -1.452 |
| `COCCN1CCC2(CC1)CC1(CCN(S(C)(=O)=O)CC1)N(C)C2=O.O=C(O)C(F)(F)F` | 4.561 and -7.691 | 7.482 |
| `O=C(NCc1cc[nH]n1)N1CCCCC(N2CCCC2)C1` (stereo unspecified) | 14.91 | 19.87 |
| `O=C1CCCN1Cc1nnc2n1CCCN(C(=O)c1ccco1)C2` | -42.55 | -28.41 |
| `Cc1ccc(NC2CCN(C(=O)c3ccc4c(c3)CCC4)CC2)nn1` | 30.43 | -8.945 |
| `COCCCNC(=O)CCn1nc(C)c2ccccc21` | -9.412 | -11.88 |
| `Cc1ccc(C(=O)N2Cc3c(CN4CCCCC4)nn(C)c3C2)o1.O=C(O)C(F)(F)F` | 0.6179 | -1.589 |
| `CNc1cc(C2CCCN2Cc2ccc(OCC(=O)O)cc2)ccn1` (stereo unspecified) | 11.71 | -11.69 |
| `Cn1cc(C(=O)CC2CCCN2C(=O)c2n[nH]c3ccccc23)cn1` (stereo unspecified) | -0.7374 | 5.582 |
| `Cn1ccc(C(=O)NCc2ccc(N3CCCCC3)nc2)cc1=O` | 15.2 | 7.514 |
| `O=C(O)C(F)(F)F.O=C(O)C(F)(F)F.[H][C@@]12C[C@H](C(=O)NCC3CC3)N(C)[C@]1([H])CN(Cc1cccc(C#N)c1)C2` | -10.43 | -1.724 and -5.575 |
| `CN1CCCN(C(=O)c2cnsn2)c2cc(F)ccc21` | -10.29 | 0.05317 |
| `CC(=O)N1CCOCC2(CN(Cc3ccc(C)o3)CCO2)C1.O=C(O)C(F)(F)F` (stereo unspecified) | -22.93 | -14.48 |
| `COc1nc(C)ccc1CNC(=O)NC(C)Cc1c(C)nn(C)c1C` (stereo unspecified) | -15.29 and 2.99 | 10.26 |
| `Cn1nc2c(cc1=O)CN(CCCOc1ccc(C#N)cc1)CC2` | 4.662 and -7.014 | -5.216 |
| `COc1cc(Cl)cc(C(=O)N2CCC3(CC2)CNC(=O)C3)c1` | -22.41 | -7.276 |
| `Cc1cc(N2CCC(c3ncc[nH]3)CC2)cc(C)n1` | -11.82 | -0.1864 |
| `O=C(CCCc1ccccn1)N1CCSC2(CCCCC2)C1` | 12.04 | 22.02 |
| `CCCc1n[nH]c(C2CN(C(=O)c3cc4c(s3)CCC4)CCO2)n1` (stereo unspecified) | -10.85 | -1.053 |
| `CC(C)NC(=O)CN(C)C(=O)c1c(Cl)c2ccccc2n1C` | 10.67 and 11.99 | 15.01 |
| `CN(C)C(=O)N1CCN(C(=O)c2cccc(Cl)c2)CC2(CNC(=O)C2)C1` (stereo unspecified) | -16.12 | -36.08 |
| `Cc1nc(C(=O)N2CCCN(Cc3cnn(C)c3)CC2)ccc1C#N` | -11.89 | -8.368 |
| `CN(C)CCNC(=O)C1Cc2nc(-c3ccccc3)sc2N1CC1CC1.O=C(O)C(F)(F)F` (stereo unspecified) | 60.4 | 8.026 |
| `Cc1[nH]c(=O)[nH]c(=O)c1CN1CCCC(CCc2c(F)cccc2F)C1` (stereo unspecified) | -26.69 | 11.35 |
| `CCc1cccc(OCCN(C)C(=O)c2ccccc2NCC(=O)O)c1` | 0.6123 | 3.89 |
| `CN(Cc1ccccc1CN1CCCC1)C(=O)c1c(O)cccc1O` | -27.13 | -9.11 and 0.5413 |
| `COc1ccc(F)cc1C[S+]([O-])CC(=O)NCc1ccccc1` (stereo unspecified) | -18.47 and 4.249 | -19.51 |
| `Cc1cnn(CC2CN(CC(=O)N3CCc4ccccc43)CCO2)c1` (stereo unspecified) | -11.44 | 0.2331 |
| `Cc1nc(CN2CCCC(NCCOCC(F)(F)F)C2)no1` (stereo unspecified) | 20.75 | 8.759 |
| `O=c1[nH]c(CN2CCN(CC(F)(F)F)CC2)nc2ccccc12` | 5.957 | -3.112 |
| `CN(Cc1nnc(C2CC2)n1C)C1CCN(CCS(C)(=O)=O)C1` (stereo unspecified) | 16.12 | 10.72 and -18.3 |
| `COCc1nnc(-c2cccc(C(=O)N(C)CC(C)(C)C)c2)o1` | -3.912 and -4.795 | -6.691 |
| `Cc1csc(N(C)C(=O)C(c2c(F)cccc2Cl)N(C)C)n1` (stereo unspecified) | -12.23 | 1.463 |
| `Cc1ccc(N2N=C(C(=O)O)S(=O)(=O)c3cccnc32)cc1` | 34.61 | 1.425 |
| `Cc1ncnc2c1CCN(Cc1cccs1)CC2.O=C(O)C(F)(F)F` | -19.6 | -23.37 |
| `CCNC(=O)C1CCN(c2nccc(C3CCCC3)n2)C1` (stereo unspecified) | 4.171 | 1.76 |
| `CC(C)C(=O)Nc1cc(C(=O)NC2CC(C)(C)NC(C)(C)C2)nn1C` | 2.899 | -12.25 |
| `CCc1noc(CNCCn2cc(C)cn2)n1` | -28.35 and 5.385 | 2.827 |
| `CN(C)C1CCCN(Cc2cccc(Cn3cccn3)c2)CC1` (stereo unspecified) | -5.618 | -11.45 and -6.1 |
| `CCCn1ncc(CN2CCCC(C(=O)c3ccc(Cl)cc3C)C2)c1C` (stereo unspecified) | -4.861 and -14.35 | 28.33 |
| `CC(=O)N1CCc2c(nc(N(C)C)nc2N(C)CCC2CCCCO2)C1` (stereo unspecified) | -24.86 | -34.94 and -14.11 |
| `O=C(NCCCN1CCOCC1)c1ccnc(OCc2ccccc2)c1` | 19.88 | -1.59 |
| `Cc1ccn(CCC(=O)N2CCCC2c2nnc(-c3scnc3C)o2)n1` (stereo unspecified) | 21.47 | -17.79 and 8.533 |
| `O=C(NCCc1nnc2n1CCC2)c1ccccc1OC1CCCC1` | 2.745 and 8.097 | -17.48 |
| `Cc1nc(N2CCOc3ccc(CO)cc3C2)c2c(C)noc2n1` | 9.654 and 1.031 | 5.336 |
| `Cc1ccc(C(C)NC(=O)N2CCN(C(=O)CC(F)(F)F)CC2)o1` (stereo unspecified) | -5.819 and 3.481 | -8.239 |
| `Cc1nc(-c2nnc[nH]2)sc1C(=O)N1CCCC1CC(C)(C)C` (stereo unspecified) | 41.77 | -14.01 and -0.9954 |
| `[H][C@@]12CCCO[C@]1([H])[C@@H](OCCCn1cccn1)CN2c1nnc(C)s1` | 1.608 and 14.83 | -6.854 |
| `CC(C(N)=O)N(C)CCCc1cc(-c2ccc(F)cc2)n(C)n1` (stereo unspecified) | 14.35 | 15.96 |
| `Cn1nc(COc2cccnc2)c2c1CCN(CC1CC1)C2.O=C(O)C(F)(F)F.O=C(O)C(F)(F)F` | -30.29 | -16.31 |
| `N#CCCN(CC(F)(F)F)C(=O)c1cc(-n2cccn2)ccn1` | 4.042 | -5.872 |
| `O=C(O)C(F)(F)F.O=C(O)C(F)(F)F.[H][C@@]12COC[C@H](C(=O)Nc3cccnc3)[C@]1([H])CN(C1CCCC1)C2` | -25.66 | 83.81 and -13.2 |
| `Cc1nn(C)c(Cl)c1C1CCCN1Cc1ccccn1` (stereo unspecified) | 23.53 | -7.86 |
| `CC(C)Nc1nc2c(c(NC3CC3)n1)CCN(Cc1nccn1C)CC2.O=C(O)C(F)(F)F` | 10.5 and 11.43 | 3.74 |

The first 9 entries again:

{"smiles": "CN(C)C(=O)C1SCCc2ccccc21", "stereo": "stereo unspecified", "A": "-0.7387 and 12.59", "B": -1.576}
{"smiles": "CCC(=O)Nc1ccccc1Sc1nc(Br)nn1C", "A": 12.78, "B": 3.642}
{"smiles": "O=C1Nc2ccccc2NC12CCN(c1cccc(C(F)(F)F)n1)CC2", "A": -63.27, "B": 114.6}
{"smiles": "CC(C)(O)CSCCNCc1ccc(Cl)c2cccnc12", "A": -60.06, "B": -34.67}
{"smiles": "Cc1ncc(CN2CCN(c3ccc4nncn4n3)C(C)C2)s1", "stereo": "stereo unspecified", "A": -0.9345, "B": -0.9199}
{"smiles": "O=C(NC1CCN(c2ccccc2OC(F)F)C1)c1cccnc1", "stereo": "stereo unspecified", "A": "28.07 and 28.12", "B": 17.61}
{"smiles": "CNC(=O)CN1CCN(C(=O)c2ccn(C)c(=O)c2)CC1", "A": -14.86, "B": -19.66}
{"smiles": "Cc1nnc(NCc2ccccc2S(=O)(=O)N(C)C)c(C#N)c1C", "A": -24.33, "B": -9.249}
{"smiles": "[H][C@@]12COC[C@]1(COCC(=O)N(C)C)CN(Cc1ccoc1)C2", "A": 13.02, "B": 2.727}